Data on one molecule can be found in PMC4240209.

Test [1] addresses untagged P23H rod opsin (Rho(P23H)) (UniProt P02699). Briefly: co-IP; SK-N-SH cells co-transfected with untagged rod opsin and ERdj5-HA constructs, 24 h; lysis in 1% DM, 5 mM EDTA in PBS; lysates incubated 2 h with 1D4 antibody against rod opsin (or control IgG) and protein G Dynabeads; blot with anti-HA.
In test [2] the target is untagged WT rod opsin (Rho) (UniProt P02699). The description is as above.

Results are given in words; binding and its absence hold for the method and conditions named. In cells and extracts the contact can be indirect. Some binding calls cover weakened binding; strength is not graded here. Where a sequence is shown, tags or fusion partners need not be part of it.

B1: ERdj5-HA (enzyme, UniProt Q8IXB1 33-793)
chain: DQDFYSLLGVSKTASSREIRQAFKKLALKLHPDKNPNNPNAHGDFLKINRAYEVLKDEDLRKKYDKYGEKGLEDNQGGQYESWNYYRYDFGIYDDDPEIITLERREFDAAVNSGELWFVNFYSPGCSHCHDLAPTWRDFAKEVDGLLRIGAVNCGDDRMLCRMKGVNSYPSLFIFRSGMAPVKYHGDRSKESLVSFAMQHVRSTVTELWTGNFVNSIQTAFAAGIGWLITFCSKGGDCLTSQTRLRLSGMLDGLVNVGWMDCATQDNLCKSLDITTSTTAYFPPGATLNNKEKNSILFLNSLDAKEIYLEVIHNLPDFELLSANTLEDRLAHHRWLLFFHFGKNENSNDPELKKLKTLLKNDHIQVGRFDCSSAPDICSNLYVFQPSLAVFKGQGTKEYEIHHGKKILYDILAFAKESVNSHVTTLGPQNFPANDKEPWLVDFFAPWCPPCRALLPELRRASNLLYGQLKFGTLDCTVHEGLCNMYNIQAYPTTVVFNQSNIHEYEGHHSAEQILEFIEDLMNPSVVSLTPTTFNELVTQRKHNEVWMVDFYSPWCHPCQVLMPEWKRMARTLTGLINVGSIDCQQYHSFCAQENVQRYPEIRFFPPKSNKAYHYHSYNGWNRDAYSLRIWGLGFLPQVSTDLTPQTFSEKVLQGKNHWVIDFYAPWCGPCQNFAPEFELLARMIKGKVKAGKVDCQAYAQTCQKAGIRAYPTVKFYFYERAKRNFQEEQINTRDAKAIAALISEKLETLRNQGKRNKDEL
With B1, the binding result in test [1] and in test [2] was “binds” in each case.
